This note sets out measurements from the supplement of paper PMC11348887.

Structures can show the parent of a compound that is named as a salt. Some of the results follow. Most values lie at the level of the controls, where differences are scatter.

This assay deals with hPSC-derived cortical neurons (WA09). As to the kind of experiment: nucleus area z-score vs screen plate; higher = larger nuclei (more mature). The note with it: 5 µM; treatment: days 7-14 after plating, readout day 21.
In turn, `COc1cc2nc(N3CCCC3)nc(NCCCCCN3CCCC3)c2cc1OC` displayed a nucleus area z-score of -8.9.

`CCOC(=O)c1ccc(N2NC(=O)C(=Cc3ccc([N+](=O)[O-])o3)C2=O)cc1`: the nucleus area z-score turned out to be 0.611.

Consider `Cc1ccc(NC(=O)Nc2cc(C(F)(F)F)ccc2F)cc1Nc1ccc2c(c1)NC(=O)/C2=C\c1ccc[nH]1`, for which the nucleus area z-score is -6.83.

As to `Cc1c(Nc2ncccc2C(=O)O)cccc1C(F)(F)F` [Flunixin Meglumin], the nucleus area z-score was -0.313.

As to `C[C@@H]1CC(=O)NN=C1c1ccc(NN=C(C#N)C#N)cc1` [Levosimendan], the nucleus area z-score was -0.111.

In turn, `CN(C)CC/C=C1/c2ccccc2Sc2ccc(Cl)cc21` [Chlorprothixene] returned a nucleus area z-score of -0.835.

Compound `COC(=O)c1ccc2c(c1)[nH]c1ncnc(NCCCN3CCCCC3)c12` returned a nucleus area z-score of -1.25.

Consider `CCC(=O)c1c(O)cc(O)cc1O` [Flopropione], for which the nucleus area z-score was found to be 0.286.

In turn, `CC(C)(CO)C(O)C(=O)NCCC(=O)O` [Calcium D-Panthotenate] displayed a nucleus area z-score of -0.359.

As to `CCOC(=O)[C@H](CCc1ccccc1)N[C@H]1CCCN2CCC[C@@H](C(=O)O)N2C1=O` [Cilazapril Monohydrate], the nucleus area z-score was 0.0123.

For the compound `O=C(CSc1nc2c(c(=O)n1-c1ccccc1)SCC2)Nc1ccc(-c2ccccc2)cn1`, the nucleus area z-score was 2.45.

The compound `CCCOc1ccn2c(C(C)=O)cc(-c3ccccc3S(C)(=O)=O)c2c1` registered a nucleus area z-score of 1.73.

`O=C1N=C(O)NC1(c1ccccc1)c1ccccc1` [Phenytoin sodium]: the nucleus area z-score was determined as 0.475.

`CC(C)(O/N=C(\C(=O)N[C@@H]1C(=O)N2C(C(=O)[O-])=C(C[n+]3ccccc3)CS[C@H]12)c1csc(N)n1)C(=O)O` [Ceftazidime Pentahydrate] displayed a nucleus area z-score of 0.767.

Turning to `C[C@]12CCC3=C4CCC(=O)C=C4CC[C@H]3[C@@H]1CC[C@@]2(O)CC#N` [Dienogest], the nucleus area z-score worked out at 2.32.

`[I-].[K+]` [Potassium Iodide]: the nucleus area z-score is -0.578.

`COc1ccc(-c2cc(=O)c3c(O)cc(O[C@@H]4O[C@H](CO[C@@H]5O[C@@H](C)[C@H](O)[C@@H](O)[C@H]5O)[C@@H](O)[C@H](O)[C@H]4O)cc3o2)cc1O` [Diosmin] came in with a nucleus area z-score of -0.0304.

`CCN(CC)CC(=O)Nc1c(C)cccc1C` [Lidocaine hydrochloride] showed a nucleus area z-score of 0.543.

Consider `O=C(O)c1ccc(C=C2SC(=S)N(c3cccc(C(F)(F)F)c3)C2=O)cc1`, for which the nucleus area z-score was 0.326.

Compound `CCN(CC)CCNC(C(=O)OCCC(C)C)c1ccccc1` (stereo unspecified) [Camylofin Chlorhydrate] gave a nucleus area z-score of 2.44.

The compound `CN(CCOc1ccc(NS(C)(=O)=O)cc1)CCc1ccc(NS(C)(=O)=O)cc1` [Dofetilide] yielded a nucleus area z-score of 1.13.

On to `NNc1nncc2ccccc12` [Hydralazine HCl], for which the nucleus area z-score is -1.01.

Regarding `COc1cccc(C=NCCN=Cc2cccc(OC)c2[O-])c1[O-].[Cl-].[Mn+3]`, the nucleus area z-score is -0.32.

`NCC[C@H](O)C(=O)N[C@@H]1C[C@H](N)[C@@H](O[C@H]2O[C@H](CN)[C@@H](O)[C@H](O)[C@H]2O)[C@H](O)[C@H]1O[C@H]1O[C@H](CO)[C@@H](O)[C@H](N)[C@H]1O` [Amikacin disulfate] registered a nucleus area z-score of -0.959.

Take `Cc1ncc([N+](=O)[O-])n1CC(C)O` (stereo unspecified) [Secnidazole]: the nucleus area z-score was determined as 1.19.

`COc1ccc(C(C)=O)c(O)c1` [Paeonol] gave a nucleus area z-score of 0.698.

`Cc1cc(O)c2c(c1)C(=O)c1cc(O)cc(O)c1C2=O` [Emodin] registered a nucleus area z-score of 0.558.

Take `CC1CCN(CC[C@H]2CCCN2S(=O)(=O)c2cccc(O)c2)CC1`: the nucleus area z-score is -0.0984.

In turn, `Nc1nc(F)nc2c1ncn2[C@@H]1O[C@H](CO)[C@@H](O)[C@@H]1O` [Fludarabine] had a nucleus area z-score of 0.0317.

In turn, `CCCCNc1ncc2c(-c3ccc(CN4CCN(C)CC4)cc3)cn([C@H]3CC[C@H](O)CC3)c2n1` showed a nucleus area z-score of -10.1.

Consider `NS(=O)(=O)c1cc2c(cc1Cl)NCNS2(=O)=O` [Hydrochlorothiazide], for which the nucleus area z-score came out at 0.0622.

Regarding `CN1CCN(c2c(F)cc3c(=O)c(C(=O)O)cn4c3c2OCN4C)CC1` [Marbofloxacin], the nucleus area z-score was 1.04.

Take `CS(=O)(=O)c1ccc(-c2nnc(/C=C/c3nnc(-c4ccc(C#N)cc4)o3)n2-c2ccccc2Cl)nc1`: the nucleus area z-score turned out to be 0.867.

In the case of `CCCCC[C@H](O)/C=C/[C@H]1[C@H](O)CC(=O)[C@@H]1CCCCCCC(=O)O` [Alprostadil], the nucleus area z-score is 0.0718.

Turning to `CC1CNc2c(cccc2S(=O)(=O)N[C@@H](CCCNC(=N)N)C(=O)N2CC[C@@H](C)C[C@@H]2C(=O)O)C1` (stereo partly specified) [Argatroban], the nucleus area z-score is -1.11.

With `CC1=NN(c2ccc(C)c(C)c2)C(=O)/C1=N\Nc1cccc(-c2cccc(C(=O)O)c2)c1O` [Eltrombopag Olamine], the nucleus area z-score worked out at 0.401.
